## Screening data, single-dose tests

Chains of the proteins cited; added tags and fusions are not shown. Residues count along the entry.
UniProt Q8IDJ8, 1-583: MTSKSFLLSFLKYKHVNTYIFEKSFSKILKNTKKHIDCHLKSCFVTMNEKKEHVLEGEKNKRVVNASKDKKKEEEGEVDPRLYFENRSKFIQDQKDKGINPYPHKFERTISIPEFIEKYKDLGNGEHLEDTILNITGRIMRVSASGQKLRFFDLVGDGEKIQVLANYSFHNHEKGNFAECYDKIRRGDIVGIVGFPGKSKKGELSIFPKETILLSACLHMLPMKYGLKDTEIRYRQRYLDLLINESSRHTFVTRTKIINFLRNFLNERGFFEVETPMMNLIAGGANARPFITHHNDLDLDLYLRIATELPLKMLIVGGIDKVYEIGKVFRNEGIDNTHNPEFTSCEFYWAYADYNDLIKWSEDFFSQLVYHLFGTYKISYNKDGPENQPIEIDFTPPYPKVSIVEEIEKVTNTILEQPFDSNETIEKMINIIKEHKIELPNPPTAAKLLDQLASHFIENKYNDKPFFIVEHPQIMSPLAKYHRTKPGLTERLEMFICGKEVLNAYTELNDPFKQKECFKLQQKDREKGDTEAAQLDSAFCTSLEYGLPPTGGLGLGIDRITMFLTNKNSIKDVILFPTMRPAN
UniProt Q4DA54, 1-478: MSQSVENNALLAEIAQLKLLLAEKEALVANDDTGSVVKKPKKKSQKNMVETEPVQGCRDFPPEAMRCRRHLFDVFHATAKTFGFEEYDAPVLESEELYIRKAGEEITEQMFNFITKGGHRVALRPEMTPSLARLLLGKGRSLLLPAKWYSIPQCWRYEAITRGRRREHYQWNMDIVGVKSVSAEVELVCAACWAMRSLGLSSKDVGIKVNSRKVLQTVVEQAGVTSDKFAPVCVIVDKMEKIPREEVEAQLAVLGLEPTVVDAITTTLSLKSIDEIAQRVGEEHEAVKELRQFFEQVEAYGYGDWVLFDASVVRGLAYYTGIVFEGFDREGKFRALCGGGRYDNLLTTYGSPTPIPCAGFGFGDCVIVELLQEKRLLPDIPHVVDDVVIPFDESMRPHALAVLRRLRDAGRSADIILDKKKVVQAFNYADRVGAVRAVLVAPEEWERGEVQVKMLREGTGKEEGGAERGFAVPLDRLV
UniProt I6X8D2, whole entry: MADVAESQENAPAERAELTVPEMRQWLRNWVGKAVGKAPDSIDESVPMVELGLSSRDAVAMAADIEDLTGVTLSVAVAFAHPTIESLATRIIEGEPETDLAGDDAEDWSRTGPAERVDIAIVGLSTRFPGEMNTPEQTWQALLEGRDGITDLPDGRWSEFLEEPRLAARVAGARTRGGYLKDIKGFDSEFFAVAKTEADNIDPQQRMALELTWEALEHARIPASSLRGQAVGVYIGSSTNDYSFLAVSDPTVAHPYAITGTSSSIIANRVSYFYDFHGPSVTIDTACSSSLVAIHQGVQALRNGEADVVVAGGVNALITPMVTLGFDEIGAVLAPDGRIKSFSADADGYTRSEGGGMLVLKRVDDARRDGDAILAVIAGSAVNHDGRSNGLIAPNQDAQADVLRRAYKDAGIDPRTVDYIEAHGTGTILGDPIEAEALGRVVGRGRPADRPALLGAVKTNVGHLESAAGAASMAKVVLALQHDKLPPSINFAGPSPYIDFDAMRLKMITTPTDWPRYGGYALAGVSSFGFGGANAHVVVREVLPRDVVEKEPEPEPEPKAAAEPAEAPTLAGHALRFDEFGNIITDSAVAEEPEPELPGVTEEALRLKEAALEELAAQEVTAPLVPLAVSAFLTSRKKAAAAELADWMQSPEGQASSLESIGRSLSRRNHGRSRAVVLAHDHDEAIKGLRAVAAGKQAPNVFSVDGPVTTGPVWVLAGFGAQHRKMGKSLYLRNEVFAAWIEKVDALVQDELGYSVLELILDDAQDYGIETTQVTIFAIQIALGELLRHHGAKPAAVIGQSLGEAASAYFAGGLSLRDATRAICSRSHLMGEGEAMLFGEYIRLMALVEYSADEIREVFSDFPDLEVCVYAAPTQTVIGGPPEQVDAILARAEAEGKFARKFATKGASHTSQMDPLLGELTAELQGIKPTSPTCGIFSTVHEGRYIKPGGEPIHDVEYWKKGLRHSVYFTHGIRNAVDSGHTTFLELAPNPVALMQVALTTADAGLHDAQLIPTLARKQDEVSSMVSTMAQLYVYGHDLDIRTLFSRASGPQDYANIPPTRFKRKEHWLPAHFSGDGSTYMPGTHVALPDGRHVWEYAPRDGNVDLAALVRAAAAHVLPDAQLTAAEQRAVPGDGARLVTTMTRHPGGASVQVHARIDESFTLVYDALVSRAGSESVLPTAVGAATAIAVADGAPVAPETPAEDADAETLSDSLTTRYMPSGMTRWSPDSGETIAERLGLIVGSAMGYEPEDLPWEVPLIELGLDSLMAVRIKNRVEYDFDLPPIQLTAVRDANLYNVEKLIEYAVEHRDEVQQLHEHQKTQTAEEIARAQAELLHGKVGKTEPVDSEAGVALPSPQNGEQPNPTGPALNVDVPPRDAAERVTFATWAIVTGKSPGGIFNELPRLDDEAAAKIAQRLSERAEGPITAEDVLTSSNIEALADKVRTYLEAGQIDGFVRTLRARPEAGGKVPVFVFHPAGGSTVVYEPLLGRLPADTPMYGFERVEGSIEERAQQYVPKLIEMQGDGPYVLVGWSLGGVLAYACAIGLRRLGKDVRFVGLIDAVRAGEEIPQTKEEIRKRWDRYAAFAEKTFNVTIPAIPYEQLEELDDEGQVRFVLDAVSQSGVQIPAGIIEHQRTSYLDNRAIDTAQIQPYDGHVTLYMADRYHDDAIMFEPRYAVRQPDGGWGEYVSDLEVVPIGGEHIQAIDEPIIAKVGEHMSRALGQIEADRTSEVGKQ

Results are given as percent effect.
How 0% and 100% were set is not recorded. Most values in the screen are low, and negative values occur.
The compounds are a random part of those screened.

PfKRS1: 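Lysine-tRNA ligase, Plasmodium falciparum 3D7 (UniProt Q8IDJ8). Enzyme assay of the cytosolic lysyl-tRNA synthetase in 384-well plates, read by luminescence. Compounds at 30 µM. Higher reads as stronger inhibition, judged from the few compounds that gave an IC50. Size under these conditions: about 69,000 compounds, about 49 of them at 50% or above in at least one test.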
TcHisRS: 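Enzyme assay of histidyl-tRNA synthetase; the read-out is not stated. Target: Histidine-tRNA ligase, Trypanosoma cruzi CL Brener (UniProt Q4DA54). Tested at 30 µM. The record gives no direction; compounds that gave an IC50 in retests scored well above the rest, so higher reads as stronger inhibition. About 69,000 compounds were tested under these conditions; 0.045% (about 31) showed 50% or more at least once.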
Pks13 thioesterase: 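Enzyme assay of the thioesterase domain of polyketide synthase 13; the read-out is not stated. Target: Polyketide synthase Pks13, Mycobacterium tuberculosis (UniProt I6X8D2). Concentration: 30 µM. Higher reads as stronger inhibition (inferred from which compounds were picked for retests). Size under these conditions: about 67,000 compounds, about 300 of them at 50% or above in at least one test.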

structure,PfKRS1,TcHisRS,Pks13 thioesterase
O=C(NCc1ccccc1Cn1cncn1)N1CCCC1,-0.154,7.179,-6.894
Cc1ccccc1NC(=O)Nc1c[nH]c(=O)[nH]c1=O,4.274,6.931,0.2562
Cc1ccc(-n2cc(C)cn2)c(NC(=O)NC2(C)CCOC2)c1 (stereo not given),0.725,3.911,-27.35
c1cncc(N2CCCC3(CCN(CCN4CCCC4)CC3)C2)c1,1.722,12.38,-42.85
CSC(C)CCN1CCC(n2cc(C3CCCCC3)nn2)CC1 (stereo not given),1.513,7.821,-24.5
O=C(N1CCOCC1)[C@@]12CCO[C@@H]1CCN(C1CCCCC1)C2,2.942,-1.22,15.33
Cc1cccc(C(=O)N2CCN(CCOC(C)C)CC2)n1,-1.482,6.494,-40.51
O=c1c(Cc2ccccc2)c(O)ccn1CCc1ccccc1,0.8999,-9.375,-6.061
O=C(COc1ccccc1Br)N1CCOc2ccncc21,0.889,3.191,-4.548
CCCn1cnnc1CNC1CCCC1,1.722,0,-1.044
c1cnnc(NCC2CN(CCn3cncn3)CCO2)c1 (stereo not given),-1.767,11.76,-1.061
CCNC(=O)NC(=O)CNC(C)(C)c1ccc2c(c1)OCO2,2.199,1.163,4.589
O=C1CC(c2ccncc2)c2c(sc3c2CCCC3)N1 (stereo not given),2.447,1.031,1.65
CCCN1CCC(NC(=O)NCCc2nc(CC)c(C)s2)CC1,10.54,-1.604,-21.39
CCC(C)NC(=O)Cn1ccc2sc(C)cc2c1=O (stereo not given),0.1977,3.518,3.489
Cn1cc(N2CCN(c3ccc(C#N)c(Cl)c3)CC2=O)cn1,7.206,13.58,-0.4305
CCOc1ncccc1NC(=O)N1CCN(c2ccc(O)cc2)CC1,0.3858,4.956,0.03703
COc1cc(C2(C(=O)N3CCN(CC(C)O)CC3)CC2)ccc1C (stereo not given),-4.748,-0.5405,1.4
CCOc1ccccc1NC(=O)CN(C)Cc1ccccc1Cl,1.008,2.222,-15.84
O=C(c1cnoc1)N1CCC[C@]2(C[C@@H](Oc3ccccn3)CO2)C1,4.616,6.14,8.047
CCS(=O)(=O)N1CCC2(CC1)CC(Oc1ccccn1)CO2 (stereo not given),0.7846,1.087,3.35
COC(=O)c1ccc(NC(C)c2ccc3c(c2)CCC(=O)N3)nn1 (stereo not given),0.4224,3.03,-31.76
CC(C)NC(=O)[C@H]1C[C@@H]2CN(C(=O)NCCc3ccccc3)C[C@H]1O2,3.067,9.091,-7.828
COCCNC(=O)c1sc(Nc2ccc(Cl)cn2)nc1C,2.064,-1.639,-21.22
CN(C)CCNc1ncccc1CNC(=O)Nc1cc(F)cc(F)c1,1.235,0,-29.87
COCCOCC(=O)NC(C#N)c1ccccc1C (stereo not given),3.256,7.514,1.271
Cn1cc(CN2C[C@@H]3CN(C(=O)c4cccn4C)CCO[C@@H]3C2)cn1,3.744,1.105,-6.654
CN(c1cccc(C#N)c1)S(=O)(=O)c1cc(C(=O)O)ccc1Cl,3.266,4.865,-43.65
Cc1nc(C)n(CC2CN(Cc3ccccc3OC(C)C)CCO2)n1 (stereo not given),0.9393,2.89,-18.67
COCCN1C[C@H]2CC[C@@H]1CN(C(=O)CCc1n[nH]c(C)c1C)C2,4.539,9.524,33.87
Cc1n[nH]c(C)c1CCC(=O)NCC1(O)CCN(c2ccccn2)C1 (stereo not given),0.2861,4.651,61.07
CN1[C@H](CN2CCCC2)C[C@@H]2CN(Cc3ccoc3)CC[C@@H]21,3.845,1.227,7.249
O=C(NCC1(Sc2ccccc2)CC1)c1cc[nH]n1,8.942,9.901,2.713
CN(C)CCNC(=O)c1cc2c(s1)CCN2S(C)(=O)=O,1.392,9.524,-17.8
Cc1cc(CN2CCOCS2(=O)=O)ccc1F,2.937,3.333,-10.97
CCc1cc(C)nc(N2CCN(C(C)c3nc(C)no3)CC2)n1 (stereo not given),-3.354,1.316,0.167
COc1cccc2c1OCC(NC(=O)NCCc1ccccn1)C2 (stereo not given),0.05837,7,-7.898

Repeated from the top, 3 entries:

| structure | PfKRS1 | TcHisRS | Pks13 thioesterase |
|---|---|---|---|
| `O=C(NCc1ccccc1Cn1cncn1)N1CCCC1` | -0.154 | 7.179 | -6.894 |
| `Cc1ccccc1NC(=O)Nc1c[nH]c(=O)[nH]c1=O` | 4.274 | 6.931 | 0.2562 |
| `Cc1ccc(-n2cc(C)cn2)c(NC(=O)NC2(C)CCOC2)c1` (stereo not given) | 0.725 | 3.911 | -27.35 |

From ChEMBL document CHEMBL3988442, “University of Dundee, Small-Polar-MMV Screening Library” (2021).